Assay results from PMC12373999.
Results are given in words; binding and its absence hold for the method and conditions named. For part of these data: Binding seen in cells or lysates may run through a third protein. Some binding calls cover weakened binding; strength is not graded here.

Amino acid sequences for entries named in this document (tags omitted).
UniProt Q5A876: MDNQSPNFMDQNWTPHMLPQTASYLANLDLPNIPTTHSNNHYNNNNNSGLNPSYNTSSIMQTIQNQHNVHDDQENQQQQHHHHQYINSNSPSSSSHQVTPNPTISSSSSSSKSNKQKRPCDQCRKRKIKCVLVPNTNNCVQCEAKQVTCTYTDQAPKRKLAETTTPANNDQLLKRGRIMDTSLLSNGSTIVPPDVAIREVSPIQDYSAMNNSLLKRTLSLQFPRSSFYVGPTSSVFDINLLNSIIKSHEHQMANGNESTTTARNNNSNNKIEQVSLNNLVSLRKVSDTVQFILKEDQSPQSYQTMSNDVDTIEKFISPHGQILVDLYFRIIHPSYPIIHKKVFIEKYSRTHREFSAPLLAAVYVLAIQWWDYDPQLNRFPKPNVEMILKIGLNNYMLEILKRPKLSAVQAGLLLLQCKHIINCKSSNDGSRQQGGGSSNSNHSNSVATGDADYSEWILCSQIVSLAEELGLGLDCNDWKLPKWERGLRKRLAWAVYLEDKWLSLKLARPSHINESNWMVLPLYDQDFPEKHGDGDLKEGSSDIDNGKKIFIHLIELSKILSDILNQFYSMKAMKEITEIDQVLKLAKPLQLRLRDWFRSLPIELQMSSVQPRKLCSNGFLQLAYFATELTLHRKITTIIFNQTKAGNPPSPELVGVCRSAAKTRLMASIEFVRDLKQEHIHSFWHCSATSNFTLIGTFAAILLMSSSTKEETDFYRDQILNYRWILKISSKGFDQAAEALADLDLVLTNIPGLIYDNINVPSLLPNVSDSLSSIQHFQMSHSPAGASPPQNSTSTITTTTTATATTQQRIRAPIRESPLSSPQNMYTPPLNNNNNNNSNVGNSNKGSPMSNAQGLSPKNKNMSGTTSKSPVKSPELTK
UniProt Q5AL16: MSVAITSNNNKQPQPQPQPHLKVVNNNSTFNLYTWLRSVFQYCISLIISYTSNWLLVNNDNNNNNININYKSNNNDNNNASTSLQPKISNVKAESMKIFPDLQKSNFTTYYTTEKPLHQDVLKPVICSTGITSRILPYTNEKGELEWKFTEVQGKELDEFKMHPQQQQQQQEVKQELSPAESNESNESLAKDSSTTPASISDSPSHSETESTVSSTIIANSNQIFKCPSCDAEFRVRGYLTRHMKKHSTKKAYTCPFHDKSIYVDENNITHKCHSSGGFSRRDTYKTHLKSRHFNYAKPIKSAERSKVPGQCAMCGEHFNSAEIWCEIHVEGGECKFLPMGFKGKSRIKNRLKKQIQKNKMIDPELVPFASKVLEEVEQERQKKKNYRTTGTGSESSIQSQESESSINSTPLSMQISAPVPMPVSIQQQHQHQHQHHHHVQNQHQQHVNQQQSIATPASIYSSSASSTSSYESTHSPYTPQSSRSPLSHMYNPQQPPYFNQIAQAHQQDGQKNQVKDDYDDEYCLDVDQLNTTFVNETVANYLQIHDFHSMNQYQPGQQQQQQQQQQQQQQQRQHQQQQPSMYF

How the values were obtained:
[1] = target: Dal81-13xMyc (C. albicans (strains derived from SC5314)) (UniProt Q5A876); experiment: co-IP; C. albicans grown in YNB + 1% CAA (initial pH 4.5) to log phase; whole cell extracts under nondenaturing conditions (50 mM Tris-HCl pH 7.5, 50 mM NaCl, 1 mM EDTA, 0.5% NP40, 5 mM MgCl2, 10% glycerol); 5 mg protein with anti-c-Myc or anti-HA affinity gel overnight at 4 °C; washes with 150 mM NaCl; western blot
[2] = target: Stp2-3xHA (C. albicans (strains derived from SC5314)) (UniProt Q5AL16); experiment: as above
[3] = target: Stp2 fused to the Gal4 DNA binding domain (BD-Stp2) (C. albicans) (UniProt Q5AL16); experiment: two-hybrid; Stp2 on the Gal4 DNA-binding domain (bait, pGBKT7, Y2HGold), Dal81 on the Gal4 activation domain (prey, pGADT7, Y187); mated diploids on SD/-Leu/-Trp/-His/-Ade with X-α-Gal; blue colonies mean interaction

Stp2-3xHA (from UniProt Q5AL16 1-584) was tested, and the binding [1] was “binds”.

With “Dal81-13xMyc (from UniProt Q5A876 1-878)” the binding [2] was “binds”.

With “Dal81 fused to the Gal4 activation domain (AD-Dal81) (from UniProt Q5A876 1-878)” the binding [3] was “binds”.
